# The list does not hold the whole screen: it gathers tests that were run many times, whatever their T/C, doses with no T/C, and many T/C values between a quarter and a half above the control. Other doses and runs of a compound stand elsewhere. T/C is the treated group as % of the vehicle group. Some doses have a count of surviving animals in place of a T/C: the source holds a T/C of zero for them, seemingly a mark for toxic or unscored doses. Some survivor counts are full or nearly so, which does not show that the dose was tolerated: the source hardly ever lists a survival T/C far under the control, and the zero likely stands for such cases as well. Survivors were counted at the toxicity check, usually on the fifth day, unless a day is given; later deaths do not show. Schedule codes are those of the source, taken here to give the interval after Q, in days (D) or hours (H), and the number of doses after X. Counts like (3×) say how often a value occurs here. Some entries hold several experiments; the results are listed from low to high. Where survival is the endpoint, the PubChem record calls one and a half times the control and up active, and a quarter to a half above the control has no call in these data; cut-offs in other NCI protocols can differ.
# System: BDF1 mice, B16 melanoma ip, median survival T/C
# Assay: NCI In Vivo Anticancer Drug Screen. Data for tumor model B16 Melanoma (intraperitoneal) in B6D2F1 (BDF1) mice
# Details: T/C endpoint: median survival time, higher T/C = longer survival
# In short: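 Antitumor activity is assessed in mice bearing a transplanted tumor, with survival or tumor size compared against vehicle-dosed controls and expressed as T/C.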
# [1] = dose: 6.25 mg/kg/injection, schedule: Q01DX009 (ip), vehicle: saline with Tween-80
# [2] = dose: 50.0 mg/kg/injection, schedule: Q01DX009 (ip), vehicle: Klucel (hydroxypropylcellulose) (HPC)
# [3] = dose: 50.0 mg/kg/injection, schedule: Q01DX009 (ip), vehicle: saline with Tween-80
# [4] = dose: 100.0 mg/kg/injection, schedule: Q01DX009 (ip), vehicle: saline with Tween-80
# [5] = dose: 200.0 mg/kg/injection, schedule: Q01DX009 (ip), vehicle: saline with Tween-80
# [6] = dose: 100.0 mg/kg/injection, schedule: Q01DX009 (ip), vehicle: saline
# [7] = dose: 75.0 mg/kg/injection, schedule: Q01DX009 (ip), vehicle: Klucel (hydroxypropylcellulose) (HPC)
# [8] = dose: 150.0 mg/kg/injection, schedule: Q01DX009 (ip), vehicle: Klucel (hydroxypropylcellulose) (HPC)
# [9] = dose: 300.0 mg/kg/injection, schedule: Q01DX009 (ip), vehicle: Klucel (hydroxypropylcellulose) (HPC)
# [10] = dose: 0.19 mg/kg/injection, schedule: Q01DX009 (ip), vehicle: saline
# [11] = dose: 3.12 mg/kg/injection, schedule: Q01DX009 (ip), vehicle: saline
# [12] = dose: 6.25 mg/kg/injection, schedule: Q01DX009 (ip), vehicle: saline
# [13] = dose: 12.5 mg/kg/injection, schedule: Q01DX009 (ip), vehicle: saline with Tween-80
# [14] = dose: 25.0 mg/kg/injection, schedule: Q01DX009 (ip), vehicle: saline with Tween-80
# [15] = dose: 50.0 mg/kg/injection, schedule: Q01DX009 (ip), vehicle: saline
# [16] = dose: 200.0 mg/kg/injection, schedule: Q01DX009 (ip), vehicle: saline
# [17] = dose: 400.0 mg/kg/injection, schedule: Q01DX009 (ip), vehicle: saline
# [18] = dose: 25.0 mg/kg/injection, schedule: Q01DX009 (ip), vehicle: Klucel (hydroxypropylcellulose) (HPC)
# [19] = dose: 100.0 mg/kg/injection, schedule: Q01DX009 (ip), vehicle: Klucel (hydroxypropylcellulose) (HPC)
# [20] = dose: 200.0 mg/kg/injection, schedule: Q01DX009 (ip), vehicle: Klucel (hydroxypropylcellulose) (HPC)
# [21] = dose: 400.0 mg/kg/injection, schedule: Q01DX009 (ip), vehicle: Klucel (hydroxypropylcellulose) (HPC)
# [22] = dose: 400.0 mg/kg/injection, schedule: Q01DX009 (ip), vehicle: saline with Tween-80
compound,measurement,setting,value
O=C(Nc1ccc(C(=O)O)cc1)Oc1ccc(N(CCCl)CCCl)cc1,T/C,"dose: 6.25 mg/kg/injection, schedule: Q01DX009 (ip), vehicle: Klucel (hydroxypropylcellulose) (HPC)",130 % of control
same,T/C,[1],137 % of control
same,T/C,"dose: 12.5 mg/kg/injection, schedule: Q01DX009 (ip), vehicle: Klucel (hydroxypropylcellulose) (HPC)",125 % of control
same,survivor count,[2],10 of 10
same,survivor count,[3],10 of 10
CSC(=S)N/N=C/c1ccccn1,survivor count,[3],5 of 6
same,survivor count,[4],0 of 6
same,survivor count,[5],2 of 6
O=C(C[n+]1ccc2ccccc2c1)c1ccccc1,survivor count,[6],0 of 6
Cc1cc(C(=O)NNC(C)Cc2ccccc2)no1 (stereo unspecified),survivor count,"dose: 2.3 mg/kg/injection, schedule: Q01DX009 (ip), vehicle: saline",10 of 10
same,survivor count,[7],9 of 10
same,survivor count,[8],9 of 10
same,survivor count,[9],3 of 10
NC(Cc1cc(I)c(O)c(I)c1)C(=O)O (stereo unspecified),T/C,"dose: 50.0 mg/kg/injection, schedule: Q01DX009 (ip), vehicle: carboxymethylcellulose (CMC)",128 % of control
same,survivor count,"dose: 400.0 mg/kg/injection, schedule: Q01DX009 (ip), vehicle: carboxymethylcellulose (CMC)",5 of 10
Cc1nc(NCc2ccccc2)c2cc[nH]c2n1,T/C,[10],129 % of control
same,T/C,"dose: 0.78 mg/kg/injection, schedule: Q01DX009 (ip), vehicle: saline",129 % of control
same,survivor count,"dose: 1.56 mg/kg/injection, schedule: Q01DX009 (ip), vehicle: saline",10 of 10
same,survivor count,[11],10 of 10
same,survivor count,[12],10 of 10
same,survivor count,"dose: 12.5 mg/kg/injection, schedule: Q01DX009 (ip), vehicle: saline",10 of 10
same,survivor count,"dose: 25.0 mg/kg/injection, schedule: Q01DX009 (ip), vehicle: saline",5 of 10
O=C1C(N2CC2)=C(N2CCCC(O)C2)C(=O)C(N2CC2)=C1N1CCCC(O)C1 (stereo unspecified),T/C,"dose: 1.0 mg/kg/injection, schedule: Q01DX009 (ip), vehicle: saline",140 % of control
same,T/C,"dose: 2.0 mg/kg/injection, schedule: Q01DX009 (ip), vehicle: saline",130 % of control
Cc1ccc[c]([Hg][Cl])c1N=Nc1ccccc1,survivor count,[13],6 of 10
same,survivor count,[14],0 of 10
O=C(CCCN1CCC2(CC1)C(=O)NCN2c1ccccc1)c1ccc(F)cc1,survivor count,[10],9 of 10
same,survivor count,[11],3 of 10
O=C1NC(=O)c2cccc3cccc1c23,survivor count,"dose: 200.0 mg/kg/injection, schedule: Q04DX003 (ip), vehicle: saline with Tween-80",6 of 6
same,survivor count,"dose: 400.0 mg/kg/injection, schedule: Q04DX003 (ip), vehicle: saline with Tween-80",6 of 6
CCCC(Cc1ccccc1)N1CCCC1 (stereo unspecified),survivor count,[15],1 of 10
same,survivor count,[6],0 of 10
same,survivor count,[16],0 of 10
same,survivor count,[17],0 of 10
COc1cc(NC(=O)CC(C)=O)cc(OC)c1OC,T/C,[16],125 % of control
COc1ccc(/C=N/n2c3ccccc3c3ccccc32)cc1OCCCN(C)C,survivor count,[18],10 of 10
same,survivor count,[2],4 of 10
same,survivor count,[19],5 of 10
same,survivor count,[20],0 of 10
Nc1nc(N)c2c(Cl)c(CNc3ccc(Cl)c(Cl)c3)ccc2n1,T/C,[1],125 % of control
same,T/C,"dose: 8.0 mg/kg/injection, schedule: Q01DX009 (ip), vehicle: saline with Tween-80",125 % of control
same,T/C,[13],137 % of control
same,survivor count,[14],10 of 10
same,survivor count,[3],10 of 10
same,survivor count,[4],10 of 10
O=c1cc(-c2ccccc2)nc(Nc2nc3ccc([N+](=O)[O-])cc3[nH]2)[nH]1,survivor count,[20],10 of 10
same,survivor count,[21],10 of 10
O=c1[nH]c(=O)n([C@H]2CCCO2)cc1F,survivor count,[12],9 of 10
same,survivor count,[20],10 of 10
same,survivor count,[16],10 of 10 (2×)
same,survivor count,[21],10 of 10
same,survivor count,[17],10 of 10 (2×)
Cl/C=C(\Cl)CCl,survivor count,[14],9 of 10 and 10 of 10
same,survivor count,[3],2 of 10
same,survivor count,[4],0 of 10
COC(=O)C1(C(=O)OC)C=CCCC1=O,survivor count,[21],9 of 10
O=C(O)CNC(=O)c1ccc([N+](=O)[O-])cc1,survivor count,[5],6 of 6
same,survivor count,[22],5 of 6
NC(N)=Nc1ccc(C(=O)Oc2ccc([N+](=O)[O-])cc2[N+](=O)[O-])cc1,survivor count,[19],10 of 10
CS(=O)(=O)Nc1ccc(C(=O)O)cc1,survivor count,[21],10 of 10
Cc1c2ccnc(-c3ccccc3)c2cc2c1[nH]c1ccccc12,survivor count,[5],10 of 10
same,survivor count,[22],10 of 10
Cc1cc(Cl)ccc1NC(=O)Nc1ccccc1Cl,survivor count,[7],10 of 10
same,survivor count,[8],10 of 10
same,survivor count,[9],10 of 10
CC(=O)NC(CCC(=O)C=[N+]=N)C(=O)O (stereo unspecified),survivor count,"dose: 0.4 mg/kg/injection, schedule: Q01DX009 (ip), vehicle: other",6 of 6
same,survivor count,"dose: 0.6 mg/kg/injection, schedule: Q01DX009 (ip), vehicle: other",6 of 6
same,survivor count,"dose: 0.8 mg/kg/injection, schedule: Q01DX009 (ip), vehicle: other",6 of 6
same,survivor count,"dose: 1.0 mg/kg/injection, schedule: Q01DX009 (ip), vehicle: other",6 of 6
CCCC(=O)OCC1OC(n2cnc3c(=S)nc(N)[nH]c32)C(OC(=O)CCC)C1OC(=O)CCC (stereo unspecified),T/C,"dose: 3.12 mg/kg/injection, schedule: Q01DX009 (ip), vehicle: Klucel (hydroxypropylcellulose) (HPC)",134 % of control
CC(C)Nc1ccc(Nc2ccc(NC(C)C)cc2)cc1,survivor count,"dose: 6.75 mg/kg/injection, schedule: Q04DX003 (ip), vehicle: alcohol",4 of 10
same,survivor count,"dose: 18.0 mg/kg/injection, schedule: Q01DX009 (ip), vehicle: alcohol",8 of 10
same,survivor count,"dose: 27.0 mg/kg/injection, schedule: Q04DX003 (ip), vehicle: alcohol",4 of 10 and 5 of 10
CS(=O)(=O)OCCCOS(C)(=O)=O,survivor count,[18],10 of 10
same,survivor count,[2],10 of 10
same,survivor count,[19],10 of 10
same,survivor count,[20],8 of 10
[Br][Pt].[NH-]CC[N-]CC[NH-],survivor count,[15],10 of 10
Clc1ccc2c(c1)/C(=C\c1ccnc3ccccc13)c1cc(Cl)cc(Cl)c1-2,survivor count,[13],6 of 6
same,survivor count,[14],6 of 6
COC(=O)C[C@](O)(CCC(C)(C)O)C(=O)O[C@@H]1C(OC)=C[C@]23CCCN2CCc2cc4c(cc2[C@H]13)OCO4,T/C,"dose: 0.5 mg/kg/injection, schedule: Q01DX009 (ip), vehicle: saline",142 % of control
same,survivor count,"dose: 4.0 mg/kg/injection, schedule: Q01DX009 (ip), vehicle: saline",3 of 6
same,T/C,"dose: 250.0 micrograms/kg/injection, schedule: Q01DX009 (ip), vehicle: saline",134 % of control
same,T/C,"dose: 500.0 micrograms/kg/injection, schedule: Q01DX009 (ip), vehicle: saline",139 % of control
Cc1cc(C)c(NC(=O)Nc2cccc(Cl)c2)c(C)c1,survivor count,[21],7 of 10
Cc1cc(Cl)ccc1NS(=O)(=O)c1ccccc1,survivor count,[21],10 of 10

# Source: PubChem BioAssay AID192 (DTP/NCI, 2004)
